From patent US20020009726A1 (LA JOLLA CANCER RESEARCH FOUNDATION, published 2002)
These are yes or no findings as the source states them, for the method shown. In cells and extracts the contact can be indirect. Some results given as binding are weak or reduced against the parent protein; the word gives no strength. Tags and fused reporters may be left off the sequences shown.

Chains of the proteins cited; added tags and fusions are not shown. Residues count along the entry.
UniProt P25942, residues 21-277: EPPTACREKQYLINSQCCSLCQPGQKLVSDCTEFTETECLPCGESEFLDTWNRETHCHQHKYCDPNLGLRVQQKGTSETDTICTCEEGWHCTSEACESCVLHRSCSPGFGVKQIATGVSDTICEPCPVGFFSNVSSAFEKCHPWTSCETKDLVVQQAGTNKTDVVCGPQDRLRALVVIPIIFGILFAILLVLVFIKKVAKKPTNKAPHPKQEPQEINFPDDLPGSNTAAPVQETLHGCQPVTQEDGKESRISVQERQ

Biological target: CD40 from RS11846 B-cell lymphoma cell lysate (human) (UniProt P25942)
Assay: GST pull-down from RS11846 lymphoma cell lysate, western blot with anti-CD40

binding: binds
B1: GST-CAP-1 (positions 363-543) (protein, not shown: a dimerising Fc or GST; large carriers; small tags and cut ends)
chain: HDQMLSVHDIRLADMDLRFQVLETASYNGVLIWKIRDYKRRKQEAVMGKTLSLYSQPFYTGYFGYKMCARVYLNGDGMGKGTHLSLFFVIMRGEYDALLPWPFKQKVTLMLMDQGSSRRHLGDAFKPDPNSSSFKKPTGEMNIASGCPVFVAQTVLENGTYIKDDTIFIKVIVDTSDLPDP
